Values from PubChem BioAssay AID720505 (Drosophila RNAi Screening Center, 2013)
The deposit covers about 20,000 reagents; this is a random part of those with a known target gene and a result. Of all reagents, about 2,100 (10%) got an active call. 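Raw plate signals without normalisation; calls rest on control-based scores that were not deposited; replicate 2 separates called from uncalled poorly.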 A plus sign joins genes that one reagent is predicted to hit. Not given: the amount of reagent, the time to read-out.

Test: 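Genes needed for store-operated calcium entry in fly cells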 (primary screen)
Cells: Drosophila S2R+ cells
Reagent: long dsRNA against Drosophila genes
Challenge: thapsigargin (2 µM) in calcium-free buffer to empty internal stores, then 2 mM calcium added back
Read-out: 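Fluo-4 signal in 384-well plates read on a FLIPR after thapsigargin (2 µM, calcium-free) store depletion and 2 mM calcium add-back; unnormalised mean endpoint per well; screen run twice, selected wells retested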
Direction: calcium signal and retest calcium signal: higher = more calcium entry after store depletion
Hit rule: 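Knock-downs counted as hits when calcium entry dropped relative to STIM1 positive and Rho1 negative controls present on each plate; roughly 1500 genes called, with reductions of differing size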
Calls: active = called as lowering calcium entry; inactive = not called

| target gene | DRSC id | calcium signal, replicate 1 | calcium signal, replicate 2 | retest calcium signal, replicate 1 | retest calcium signal, replicate 2 | outcome |
| --- | --- | --- | --- | --- | --- | --- |
| CG13062 | DRSC09945 | 87.6 | 101 | – | – | inactive |
| CG40006 | DRSC03787 | 101 | 4060 | – | – | inactive |
| CG40006 | DRSC03809 | 96.2 | 7052 | – | – | inactive |
| CG40006 | DRSC03814 | 104 | 5095 | – | – | inactive |
| CG40006 | DRSC03817 | 121 | 5393 | – | – | inactive |
| Ten-m | DRSC11664 | 78.5 | 151 | – | – | inactive |
| Ten-m | DRSC11882 | 95.2 | 110 | – | – | inactive |
| CG14947 | DRSC02429 | 99.1 | 157 | – | – | inactive |
| Lcp4 | DRSC07458 | 121 | 93.1 | – | – | inactive |
| Semp1 | DRSC01874 | 80.9 | 140 | – | – | active |
| CG13833 | DRSC14683 | 189 | 148 | – | – | inactive |
| jb | DRSC20531 | 104 | 84.1 | – | – | inactive |
| Dlish | DRSC06016 | 144 | 143 | – | – | inactive |
| MsR2 | DRSC08336 | 111 | 84 | – | – | inactive |
| MsR2 | DRSC08337 | 78.2 | 89.4 | – | – | inactive |
| MsR2 | DRSC22440 | 161 | 188 | – | – | inactive |
| Cam | DRSC07353 | 89.5 | 147 | 81 | 87.3 | inactive |
| Cam | DRSC07354 | 96.7 | 160 | – | – | active |
| CG10799 | DRSC06002 | 110 | 190 | – | – | inactive |
| CheB93b | DRSC21762 | 198 | 106 | – | – | inactive |
| CG13693 | DRSC00362 | 180 | 108 | – | – | inactive |
| mfrn | DRSC15687 | 86.7 | 102 | – | – | inactive |
| en | DRSC07609 | 109 | 192 | – | – | inactive |
| Cad87A | DRSC16161 | 98.9 | 118 | – | – | inactive |
| CG13133 | DRSC02230 | 125 | 88.7 | – | – | inactive |
| Uba1 | DRSC07567 | 153 | 153 | – | – | inactive |
| CG31454 | DRSC14365 | 123 | 204 | – | – | inactive |
| CG31454 | DRSC22801 | 96.4 | 116 | – | – | inactive |
| CG2811 | DRSC04318 | 77.5 | 112 | – | – | inactive |
| Bulli | DRSC10974 | 97.5 | 69 | – | – | inactive |
| CheB38c | DRSC02389 | 59.4 | 165 | – | – | inactive |
| CG7950 + Rpp14a | DRSC16353 | 97.5 | 180 | – | – | inactive |
| lncRNA:CR41443 | DRSC07733 | 147 | 105 | – | – | inactive |
| Obp28a | DRSC03394 | 40.9 | 130 | – | – | active |
| esg | DRSC03530 | 106 | 150 | – | – | inactive |
| CG2975 | DRSC00556 | 191 | 159 | – | – | inactive |
| CG12362 | DRSC09884 | 83.2 | 99.4 | – | – | inactive |
| NFAT | DRSC18991 | 81.1 | 74 | – | – | inactive |
| NFAT | DRSC19393 | 47.7 | 78.3 | – | – | active |
| CG15820 | DRSC08480 | 121 | 120 | – | – | inactive |
| Hgsnat | DRSC18405 | 77.7 | 62.1 | – | – | active |
| Mvk + CG33672 + spt4 | DRSC05356 | 78.7 | 110 | – | – | inactive |
| Mvk + CG33672 + spt4 | DRSC06628 | 175 | 158 | – | – | inactive |
| CG14777 | DRSC18563 | 98.7 | 113 | – | – | inactive |
| l(2)k10201 | DRSC06439 | 119 | 173 | – | – | inactive |
| l(2)k10201 | DRSC07640 | 97.8 | 145 | – | – | inactive |
| mspo | DRSC07652 | 98.8 | 181 | – | – | inactive |
| CG9471 | DRSC16499 | 136 | 105 | – | – | inactive |
| CG10839 | DRSC01965 | 119 | 149 | – | – | inactive |
| spir | DRSC03619 | 93.6 | 112 | – | – | inactive |
| p53 | DRSC17024 | 164 | 251 | – | – | inactive |
| robo1 | DRSC04712 | 184 | 250 | – | – | inactive |
| CG11211 | DRSC04851 | 170 | 215 | – | – | inactive |
| CG1801 | DRSC20556 | 68 | 165 | – | – | active |
| CG8958 | DRSC20134 | 89.9 | 140 | – | – | inactive |
| CG14391 | DRSC14850 | 165 | 103 | – | – | inactive |
